# Screening data, single-dose tests

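Growth of Mycobacterium tuberculosis over 4 days (cholesterol / DPPC medium with tyloxapol); the read-out is not stated. Tested at 500 µM. Direction is inferred from retests: higher values go with more growth inhibition. About 18,000 compounds were tested under these conditions; 5% (about 900) showed 50% or more at least once.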

Values are the deposited “Percent Effect”, in %.
The record does not define 0% and 100%; most values in the screen are far below 50% and negative numbers occur (in some assays of this library far below -100).
Compounds were drawn at random from those tested, without regard to their results.

NC[C@H](O)c1cccc(Cl)c1 gave 0.6829%.
CCc1nnc(CN)o1 gave 6.617%.
CCNc1ncc(C(=O)NC2CCCCNC2=O)cn1 (stereo not shown) gave -16.63%.
O=C(NCCNCc1cccnc1)c1ccco1 gave 28.84%.
CN(CC(=O)NCc1ccccn1)S(C)(=O)=O gave -21.85%.
Cc1[nH]cnc1CN1CCN(C(=O)c2ccc[nH]2)CC1 gave 0.1269%.
O=C1CN(C(=O)c2cc3cccc(Br)c3o2)CCN1 gave -31.33%.
CCOCC(=O)NCC(O)c1cccc(C(F)(F)F)c1 (stereo not shown) gave 44.05%.
COc1cccnc1CN gave 3.523%.
Cn1ccnc1SCC(=O)Nc1cccnc1 gave -6.287%.
NCCc1nnc(N)o1 gave 14.71%.
COc1cccc(N2CC(N)CC2=O)c1 (stereo not shown) gave 3.868%.
CC(C)C(N)c1nnc2ccccn12 (stereo not shown) gave 6.635%.
CC(Cn1cc(Br)cn1)NCCNC(=O)C(C)(C)C (stereo not shown) gave 14.44%.
O=S(=O)(NCc1cccs1)C1CCOC1 (stereo not shown) gave -13.11%.
CN(Cc1ccccc1O)C(=O)C1CCOCC1 gave 5.529%.
CN(CCCc1ccccc1)CC(=O)NCCC#N gave 12.82%.
Cc1ccc(S(N)(=O)=O)cc1F gave -4.964%.
CC(C)[C@@H](CO)NC(=O)c1ccn(C2CCCC2)n1 gave -3.328%.
CCc1[nH]nc(N)c1-c1ccc2c(c1)OCO2 gave 16.94%.
COCCOC1CCN(c2cc(C)ccn2)CC1 gave 43.31%.
Cc1n[nH]c(SCCNC(=O)COCC2CCCO2)n1 (stereo not shown) gave 9.3%.
NC(=O)CN1CCCC1c1ccccc1 (stereo not shown) gave -4.905%.
NC(=O)CCc1csc(N)n1 gave -7.86%.
CCNC(=O)CN1CCN(Cc2cccnc2N)CC1 gave 4.12%.
CC[C@H](N)C(=O)N1CCCC1CC(C)C (stereo partly shown) gave 19.69%.
CS(=O)(=O)Cc1ccc(C(=O)NCC2CCCO2)cc1 (stereo not shown) gave -4.427%.
O=C1CN(Cc2ccccc2)C(=O)CN1 gave 14.69%.
CCOc1cc(CNCCO)c(Cl)cc1OC gave 26.58%.
COCCN(C)C(=O)Nc1cccc(C)n1 gave 4.71%.
CCNC(=O)c1ccc(-n2c(C)ccc2C)nc1 gave 0.6449%.
Cc1noc(C)c1S(=O)(=O)NCCCN1CCCC1=O gave -3.821%.
O=S1(=O)CCN(c2ccnc3cc(Cl)ccc23)CC1 gave -9.691%.
Cc1cccc(NC(=O)C2COCCO2)c1 (stereo not shown) gave 10.29%.
O=C(NCCOc1ncccc1Cl)c1ccsc1 gave 78.79%.
c1cn2c(n1)CN(Cc1nc(C3CC3)no1)CC2 gave 2.62%.
CS(=O)(=O)c1ccc(N2CCSCC2)c(S(C)(=O)=O)c1 gave -19.62%.
COc1cccc(S(=O)(=O)NCCc2noc(C)n2)c1 gave 11.73%.
CN(C)c1cccc(C(=O)Nc2cnns2)c1 gave 25.88%.
CC(C)N(CCS(=O)(=O)c1ccccc1)CC(N)=O gave 50.53%.
CN1CCC(NC(=O)NCCc2ccc(Br)s2)C1=O (stereo not shown) gave -7.217%.
CC(C)[C@@H](CCN)NC(=O)OC(C)(C)C gave -2.131%.
Cn1cncc1CN gave 3.199%.
Cc1cc(N)n(CC(=O)NCC2CCCOC2)n1 (stereo not shown) gave 1.053%.
Cn1nccc1C(=O)Nc1cnccc1O gave 6.128%.
NC(=O)C1CCN(CCSc2ccccc2)CC1 gave 16.69%.
COc1ncc(C(=O)N2CCc3ccccc3C2)cn1 gave 5.962%.
O=C(Cc1cccs1)NCC1CCCNC1 (stereo not shown) gave 2.606%.
COCCn1cnnc1SCc1ccc(C#N)cc1 gave -2.955%.
CCNC(=O)CNc1noc(C(C)(C)C)n1 gave 1.632%.
COc1cccc(CC(=O)N2CCNCC2)c1 gave -3.32%.
CN1CCCC(CCC(=O)NCCn2ccnc2)C1 (stereo not shown) gave 4.778%.
CC(C)c1nc(-c2cccc(O)c2)n[nH]1 gave 16.08%.
Cc1nn(CCO)c(C)c1CNCCn1cccn1 gave -4.505%.
COc1ccc(CCN2CCCNCC2)cc1 gave 62.34%.
CNS(=O)(=O)c1ccccc1S(=O)(=O)NC1CCOC1 (stereo not shown) gave -6.012%.
CCOC(=O)C1(COC)CCCNC1 (stereo not shown) gave -4.257%.
NC(=O)CN1CCC(c2nc(C3CCOC3)no2)CC1 (stereo not shown) gave 6.379%.
CC(C)(O)CCc1ccc(CN2CCNC(=O)C2)cc1 gave 5.298%.
O=C(NCc1nnc[nH]1)c1cccc(Br)c1Cl gave 0.05142%.

4 of the entries, repeated:

For CCNC(=O)CN1CCN(Cc2cccnc2N)CC1 the result was 4.12%.
For Cc1n[nH]c(SCCNC(=O)COCC2CCCO2)n1 (stereo not shown) the result was 9.3%.
For O=C(Cc1cccs1)NCC1CCCNC1 (stereo not shown) the result was 2.606%.
For NC[C@H](O)c1cccc(Cl)c1 the result was 0.6829%.

The values are deposited in ChEMBL (CHEMBL3988442, “University of Dundee, Small-Polar-MMV Screening Library” (2021)).